The target of this assay is Human 6xHis tagged NKp46 recombinant protein (human) (UniProt O76036). Kind of assay: SPR (Biacore T100) competition study with recombinant human NKp46. On the technique in general: SPR reads the build-up and loss of mass on a sensor chip optically.

Protein sequences, listed by entry. Tags and fused reporters are not part of them. Lines headed by an entry give the natural chain unless they say otherwise; changes in a name come on top.
UniProt O76036: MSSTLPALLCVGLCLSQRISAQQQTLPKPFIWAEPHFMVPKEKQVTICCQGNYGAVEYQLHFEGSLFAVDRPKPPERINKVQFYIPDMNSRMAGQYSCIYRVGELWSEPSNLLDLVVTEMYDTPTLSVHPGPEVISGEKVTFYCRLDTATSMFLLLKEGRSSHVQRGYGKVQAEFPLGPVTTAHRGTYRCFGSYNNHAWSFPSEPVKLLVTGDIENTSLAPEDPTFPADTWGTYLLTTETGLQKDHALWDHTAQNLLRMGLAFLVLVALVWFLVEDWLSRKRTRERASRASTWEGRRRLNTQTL

These are yes or no findings as the source states them, for the method shown. Some binding calls cover weakened binding; strength is not graded here.

B1: NKp46-3 (parental human IgG1 chimeric anti-NKp46 antibody) (antibody, V domains shown)
VH: EVQLQQSGPELVKPGASVKISCKTSGYTFTEYTMHWVKQSHGKSLEWIGGISPNIGGTSYNQKFKGKATLTVDKSSSTAYMELRSLTSEDSAVYYCARRGGSFDYWGQGTTLTVSS
VL: DIVMTQSPATLSVTPGDRVSLSCRASQSISDYLHWYQQKSHESPRLLIKYASQSISGIPSRFSGSGSGSDFTLSINSVEPEDVGVYYCQNGHSFPLTFGAGTKLELK
For B1, the binding entry was “binds”.

B2: NKp46-2 (parental human IgG1 chimeric anti-NKp46 antibody) (antibody, V domains shown)
VH: EVQLQESGPGLVKPSQSLSLTCTVTGYSITSDYAWNWIRQFPGNKLEWMGYITYSGSTSYNPSLESRISITRDTSTNQFFLQLNSVTTEDTATYYCARGGYYGSSWGVFAYWGQGTLVTVSA
VL: DIQMTQSPASLSASVGETVTITCRVSENIYSYLAWYQQKQGKSPQLLVYNAKTLAEGVPSRFSGSGSGTQFSLKINSLQPEDFGSYYCQHHYGTPWTFGGGTKLEIK
B2: the binding entry is reported as “binds”.

Values taken from patent US20260232797A1.
